According to patent publication US12285487B2, “Liquid topical pharmaceutical nano-emulsion formulations” (JRX BIOTECHNOLOGY, INC., priority 2012, dated 2025):

Test: Optical microscopic examination of neat API dry powder
Format: physicochemical
Text: Neat API: For optical microscopic/image analysis examination the material was used as received. A small aliquot was placed on a clean microscope slide and a clean glass coverslip placed on top.
The optical microscope was a Zeiss Model Std 25 fitted with a 40× objective. The particle size analyzers were the Horiba LA 950 (LD) and a Malvern NanoSizer 90Z (DLS). The Raman spectrometer was a Horiba XploRA Raman Microscope.

particle size prior to formulation: ~100 microns
SMILES: COc1ccc2cc(C(C)C(=O)O)ccc2c1 (stereo not shown) [Naproxen, 2-(6-methoxynaphthalen-2-yl)propanoic acid]
